Measurements reported in patent US20250283871A1, “COMPOSITIONS AND METHODS FOR MODULATING THE INTERACTION BETWEEN SS18-SSX FUSION ONCOPROTEIN AND NUCLEOSOMES” (Dana-Farber Cancer Institute, Inc., priority 2020, published 2025).

B1: ADNP (protein, UniProt Q9H2P0 1-1102, looked up)
Activity-dependent …: MFQLPVNNLGSLRKARKTVKKILSDIGLEYCKEHIEDFKQFEPNDFYLKNTTWEDVGLWDPSLTKNQDYRTKPFCCSACPFSSKFFSAYKSHFRNVHSEDFENRILLNCPYCTFNADKKTLETHIKIFHAPNASAPSSSLSTFKDKNKNDGLKPKQADSVEQAVYYCKKCTYRDPLYEIVRKHIYREHFQHVAAPYIAKAGEKSLNGAVPLGSNAREESSIHCKRCLFMPKSYEALVQHVIEDHERIGYQVTAMIGHTNVVVPRSKPLMLIAPKPQDKKSMGLPPRIGSLASGNVRSLPSQQMVNRLSIPKPNLNSTGVNMMSSVHLQQNNYGVKSVGQGYSVGQSMRLGLGGNAPVSIPQQSQSVKQLLPSGNGRSYGLGSEQRSQAPARYSLQSANASSLSSGQLKSPSLSQSQASRVLGQSSSKPAAAATGPPPGNTSSTQKWKICTICNELFPENVYSVHFEKEHKAEKVPAVANYIMKIHNFTSKCLYCNRYLPTDTLLNHMLIHGLSCPYCRSTFNDVEKMAAHMRMVHIDEEMGPKTDSTLSFDLTLQQGSHTNIHLLVTTYNLRDAPAESVAYHAQNNPPVPPKPQPKVQEKADIPVKSSPQAAVPYKKDVGKTLCPLCFSILKGPISDALAHHLRERHQVIQTVHPVEKKLTYKCIHCLGVYTSNMTASTITLHLVHCRGVGKTQNGQDKTNAPSRLNQSPSLAPVKRTYEQMEFPLLKKRKLDDDSDSPSFFEEKPEEPVVLALDPKGHEDDSYEARKSFLTKYFNKQPYPTRREIEKLAASLWLWKSDIASHFSNKRKKCVRDCEKYKPGVLLGFNMKELNKVKHEMDFDAEWLFENHDEKDSRVNASKTADKKLNLGKEDDSSSDSFENLEEESNESGSPFDPVFEVEPKISNDNPEEHVLKVIPEDASESEEKLDQKEDGSKYETIHLTEEPTKLMHNASDSEVDQDDVVEWKDGASPSESGPGSQQVSDFEDNTCEMKPGTWSDESSQSEDARSSKPAAKKKATMQGDREQLKWKNSSYGKVEGFWSKDQSQWKNASENDERLSNPQIEWQNSTIDSEDGEQFDNMTDGVAEPMHGSLAGVKLSSQQA
B2: SLC1A5 (protein, UniProt Q15758 1-541, looked up)
Neutral amino acid …: MVADPPRDSKGLAAAEPTANGGLALASIEDQGAAAGGYCGSRDQVRRCLRANLLVLLTVVAVVAGVALGLGVSGAGGALALGPERLSAFVFPGELLLRLLRMIILPLVVCSLIGGAASLDPGALGRLGAWALLFFLVTTLLASALGVGLALALQPGAASAAINASVGAAGSAENAPSKEVLDSFLDLARNIFPSNLVSAAFRSYSTTYEERNITGTRVKVPVGQEVEGMNILGLVVFAIVFGVALRKLGPEGELLIRFFNSFNEATMVLVSWIMWYAPVGIMFLVAGKIVEMEDVGLLFARLGKYILCCLLGHAIHGLLVLPLIYFLFTRKNPYRFLWGIVTPLATAFGTSSSSATLPLMMKCVEENNGVAKHISRFILPIGATVNMDGAALFQCVAAVFIAQLSQQSLDFVKIITILVTATASSVGAAGIPAGGVLTLAIILEAVNLPVDHISLILAVDWLVDRSCTVLNVEGDALGAGLLQNYVDRTESRSTEPELIQVKSELPLDPLPVPTEEGNPLLKHYRGPAGDATVASEKESVM
B3: HADHB (protein, UniProt P55084 34-474, looked up)
Trifunctional enzyme subunit …: AAPAVQTKTKKTLAKPNIRNVVVVDGVRTPFLLSGTSYKDLMPHDLARAALTGLLHRTSVPKEVVDYIIFGTVIQEVKTSNVAREAALGAGFSDKTPAHTVTMACISANQAMTTGVGLIASGQCDVIVAGGVELMSDVPIRHSRKMRKLMLDLNKAKSMGQRLSLISKFRFNFLAPELPAVSEFSTSETMGHSADRLAAAFAVSRLEQDEYALRSHSLAKKAQDEGLLSDVVPFKVPGKDTVTKDNGIRPSSLEQMAKLKPAFIKPYGTVTAANSSFLTDGASAMLIMAEEKALAMGYKPKAYLRDFMYVSQDPKDQLLLGPTYATPKVLEKAGLTMNDIDAFEFHEAFSGQILANFKAMDSDWFAENYMGRKTKVGLPPLEKFNNWGGSLSLGHPFGATGCRLVMAAANRLRKEGGQYGLVAACAAGGQGHAMIVEAYPK
B4: ILF3 (protein, UniProt Q12906 1-894, looked up)
Interleukin enhancer-binding …: MRPMRIFVNDDRHVMAKHSSVYPTQEELEAVQNMVSHTERALKAVSDWIDEQEKGSSEQAESDNMDVPPEDDSKEGAGEQKTEHMTRTLRGVMRVGLVAKGLLLKGDLDLELVLLCKEKPTTALLDKVADNLAIQLAAVTEDKYEILQSVDDAAIVIKNTKEPPLSLTIHLTSPVVREEMEKVLAGETLSVNDPPDVLDRQKCLAALASLRHAKWFQARANGLKSCVIVIRVLRDLCTRVPTWGPLRGWPLELLCEKSIGTANRPMGAGEALRRVLECLASGIVMPDGSGIYDPCEKEATDAIGHLDRQQREDITQSAQHALRLAAFGQLHKVLGMDPLPSKMPKKPKNENPVDYTVQIPPSTTYAITPMKRPMEEDGEEKSPSKKKKKIQKKEEKAEPPQAMNALMRLNQLKPGLQYKLVSQTGPVHAPIFTMSVEVDGNSFEASGPSKKTAKLHVAVKVLQDMGLPTGAEGRDSSKGEDSAEETEAKPAVVAPAPVVEAVSTPSAAFPSDATAEQGPILTKHGKNPVMELNEKRRGLKYELISETGGSHDKRFVMEVEVDGQKFQGAGSNKKVAKAYAALAALEKLFPDTPLALDANKKKRAPVPVRGGPKFAAKPHNPGFGMGGPMHNEVPPPPNLRGRGRGGSIRGRGRGRGFGGANHGGYMNAGAGYGSYGYGGNSATAGYSQFYSNGGHSGNASGGGGGGGGGSSGYGSYYQGDNYNSPVPPKHAGKKQPHGGQQKPSYGSGYQSHQGQQQSYNQSPYSNYGPPQGKQKGYNHGQGSYSYSNSYNSPGGGGGSDYNYESKFNYSGSGGRSGGNSYGSGGASYNPGSHGGYGGGSGGGSSYQGKQGGYSQSNYNSPGSGQNYSGPPSSYQSSQGGYGRNADHSMNYQYR
B5: POGZ (protein, UniProt Q7Z3K3 1-1410, looked up)
Pogo transposable element …: MADTDLFMECEEEELEPWQKISDVIEDSVVEDYNSVDKTTTVSVSQQPVSAPVPIAAHASVAGHLSTSTTVSSSGAQNSDSTKKTLVTLIANNNAGNPLVQQGGQPLILTQNPAPGLGTMVTQPVLRPVQVMQNANHVTSSPVASQPIFITTQGFPVRNVRPVQNAMNQVGIVLNVQQGQTVRPITLVPAPGTQFVKPTVGVPQVFSQMTPVRPGSTMPVRPTTNTFTTVIPATLTIRSTVPQSQSQQTKSTPSTSTTPTATQPTSLGQLAVQSPGQSNQTTNPKLAPSFPSPPAVSIASFVTVKRPGVTGENSNEVAKLVNTLNTIPSLGQSPGPVVVSNNSSAHGSQRTSGPESSMKVTSSIPVFDLQDGGRKICPRCNAQFRVTEALRGHMCYCCPEMVEYQKKGKSLDSEPSVPSAAKPPSPEKTAPVASTPSSTPIPALSPPTKVPEPNENVGDAVQTKLIMLVDDFYYGRDGGKVAQLTNFPKVATSFRCPHCTKRLKNNIRFMNHMKHHVELDQQNGEVDGHTICQHCYRQFSTPFQLQCHLENVHSPYESTTKCKICEWAFESEPLFLQHMKDTHKPGEMPYVCQVCQYRSSLYSEVDVHFRMIHEDTRHLLCPYCLKVFKNGNAFQQHYMRHQKRNVYHCNKCRLQFLFAKDKIEHKLQHHKTFRKPKQLEGLKPGTKVTIRASRGQPRTVPVSSNDTPPSALQEAAPLTSSMDPLPVFLYPPVQRSIQKRAVRKMSVMGRQTCLECSFEIPDFPNHFPTYVHCSLCRYSTCCSRAYANHMINNHVPRKSPKYLALFKNSVSGIKLACTSCTFVTSVGDAMAKHLVFNPSHRSSSILPRGLTWIAHSRHGQTRDRVHDRNVKNMYPPPSFPTNKAATVKSAGATPAEPEELLTPLAPALPSPASTATPPPTPTHPQALALPPLATEGAECLNVDDQDEGSPVTQEPELASGGGGSGGVGKKEQLSVKKLRVVLFALCCNTEQAAEHFRNPQRRIRRWLRRFQASQGENLEGKYLSFEAEEKLAEWVLTQREQQLPVNEETLFQKATKIGRSLEGGFKISYEWAVRFMLRHHLTPHARRAVAHTLPKDVAENAGLFIDFVQRQIHNQDLPLSMIVAIDEISLFLDTEVLSSDDRKENALQTVGTGEPWCDVVLAILADGTVLPTLVFYRGQMDQPANMPDSILLEAKESGYSDDEIMELWSTRVWQKHTACQRSKGMLVMDCHRTHLSEEVLAMLSASSTLPAVVPAGCSSKIQPLDVCIKRTVKNFLHKKWKEQAREMADTACDSDVLLQLVLVWLGEVLGVIGDCPELVQRSFLVASVLPGPDGNINSPTRNADMQEELIASLEEQLKLSGEHSESSTPRPRSSPEETIEPESLHQLFEGESETESFYGFEEADLDLMEI
B6: UTP14A (protein, UniProt Q9BVJ6 1-771, looked up)
U3 small nucleolar …: MTANRLAESLLALSQQEELADLPKDYLLSESEDEGDNDGERKHQKLLEAISSLDGKNRRKLAERSEASLKVSEFNVSSEGSGEKLVLADLLEPVKTSSSLATVKKQLSRVKSKKTVELPLNKEEIERIHREVAFNKTAQVLSKWDPVVLKNRQAEQLVFPLEKEEPAIAPIEHVLSGWKARTPLEQEIFNLLHKNKQPVTDPLLTPVEKASLRAMSLEEAKMRRAELQRARALQSYYEAKARREKKIKSKKYHKVVKKGKAKKALKEFEQLRKVNPAAALEELEKIEKARMMERMSLKHQNSGKWAKSKAIMAKYDLEARQAMQEQLSKNKELTQKLQVASESEEEEGGTEDVEELLVPDVVNEVQMNADGPNPWMLRSCTSDTKEAATQEDPEQLPELEAHGVSESEGEERPVAEEEILLREFEERRSLRKRSELSQDAEPAGSQETKDSGSQEVLSELRVLSQKLKENHQSRKQKASSEGTIPQVQREEPAPEEEEPLLLQRPERVQTLEELEELGKEECFQNKELPRPVLEGQQSERTPNNRPDAPKEKKKKEQMIDLQNLLTTQSPSVKSLAVPTIEELEDEEERNHRQMIKEAFAGDDVIRDFLKEKREAVEASKPKDVDLTLPGWGEWGGVGLKPSAKKRRRFLIKAPEGPPRKDKNLPNVIINEKRNIHAAAHQVRVLPYPFTHHWQFERTIQTPIGSTWNTQRAFQKLTTPKVVTKPGHIINPIKAEDVGYRSSSRSDLSVIQRNPKRITTRHKKQLKKCSVD

Tested on: BAF complex subunits and histone proteins
Assay: Mass spectrometry proteomics of purified HA-SS18 WT and HA-SS18-SSX1 complexes (Tables 5A-5E)
Design: species or system human
[1] = HA-SS18SSX1_CHR_peptides: protein identified in the HA-SS18-SSX1 purification from solubilized chromatin (CHR), HEK-293T
[2] = HA-SS18WT_CHR_peptides: HA-SS18 WT purification from nuclease-treated solubilized chromatin (CHR), HEK-293T, label = protein identified
[3] = HA-SS18SSX1 purification, NE (soluble nuclear extract) fraction, HEK-293T, peptides per identified protein
[4] = HA-SS18WT_NE_peptides: HA-SS18 WT complexes purified from nuclear extract (NE), HEK-293T, label = protein identified (Gene Symbol)
[5] = HA-SS18SSX1_NE_peptides: protein co-purified with HA-SS18-SSX1 BAF complexes from soluble nuclear extract (NE), HEK-293T cells

Row | Molecule | Total (total peptides) [1] | Unique (unique peptides) [1] | Total (peptides) [2] | Unique (peptides) [2] | Total (total peptides) [3] | Unique (unique peptides) [3] | Total (peptides) [4] | Unique (peptides) [4] | Total (peptides) [5] | Unique (peptides) [5]
1 | B1 | 15 | 14 | 12 | 9 | – | – | – | – | – | –
2 | B2 | – | – | – | – | 9 | 8 | 6 | 5 | – | –
3 | B3 | – | – | – | – | 9 | 8 | 6 | 6 | – | –
4 | B4 | 16 | 13 | 10 | 9 | – | – | – | – | 2 | 2
5 | B5 | 15 | 14 | 10 | 10 | – | – | – | – | – | –
6 | B6 | 16 | 11 | 6 | 5 | – | – | – | – | 1 | 1
